US20110207759A1, “METHOD FOR TREATMENT OF ATHEROSCLEROTIC DISEASE” (priority 2010, published 2011)

Tested on: statin-treated patients with atherosclerotic coronary or vascular disease or coronary risk equivalent
Test: Fasting plasma lipids, glucose and C-reactive protein during treatment;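 further: plasma drawn after an overnight fast, LDL-C determined by direct assay and C-reactive protein by high-sensitivity immunoturbidimetry with monoclonal anti-CRP antibodies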
Conditions: mean ± SD; for Glucose: 208 completers; for Fasting glucose, final values: study completion, n=315

## O=C1[C@H](CC[C@H](O)c2ccc(F)cc2)[C@@H](c2ccc(O)cc2)N1c1ccc(F)cc1 [Ezetimibe, ezetimibe]
2 Months
  Glucose: 109.6 ± 39.5 mg/dL
8 Months
  Glucose: 108.2 ± 27.7 mg/dL
14 Months
  Glucose: 110.4 ± 33.4 mg/dL
  Fasting glucose, final values: 111.2 ± 33.8 mg/dL

## O=C(O)c1cccnc1 [Niacin, niacin]
2 Months
  Glucose: 109.1 ± 23.9 mg/dL
8 Months
  Glucose: 107.6 ± 28.1 mg/dL
14 Months
  Glucose: 107.4 ± 24.9 mg/dL
  Fasting glucose, final values: 111.5 ± 41.0 mg/dL
